Values quoted from earlier work as cited in patent US8357692B2, “Methods of treatment of bone degenerative diseases” (Washington University, priority 2010, dated 2013).

Tested on: P. falciparum FCR-3
Conditions: Table 1; cytotoxicity/antimalarial activity; cited from earlier work

Structure (SMILES)	selectivity
O=c1c2ccccc2ncn1CC(O)C[C@H]1NCCC[C@@H]1O (stereo partly drawn) [compound 8]	750
O=C(C[C@H]1NCCC[C@@H]1O)Cn1cnc2ccccc2c1=O [compound 1, febrifugine]	243
O=c1c2ccccc2ncn1CC1(O)C[C@@H]2NCCC[C@@H]2O1 (stereo partly drawn) [compound 2, isofebrifugine]	53
O=c1c2ccccc2ccn1CC1(O)C[C@@H]2NCCC[C@@H]2O1 (stereo partly drawn) [compound 15]	>3
O=C(CC1NCCCC1=O)Cn1cnc2ccccc2c1=O (stereo not drawn) [compound 7]	500
O=c1ccncn1CC1(O)C[C@@H]2NCCC[C@@H]2O1 (stereo partly drawn) [compound 13]	175
